Data as given in the supplement of paper PMC12823440, “Inhibitors supercharge kinase turnover through native proteolytic circuits” (Nature, 2025).
Counter-ions that a name gives are not always drawn. The list shows a part of the results. The calls rarely recur for the same compound in another form.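 In K562 cells expressing nanoluciferase-fused kinases, luminescence was recorded at 4 h intervals between 2 and 18 h, normalized as percent of control with DMSO at 100% and a positive control at 0%. A significant (2 sigma) signal drop marks a time point as decreased. The authors' rule for a hit is not shown and takes in more than the number of time points.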

By UniProt entry, the sequences of proteins in these tests, tags left out.
UniProt Q9Y463, whole entry, looked up: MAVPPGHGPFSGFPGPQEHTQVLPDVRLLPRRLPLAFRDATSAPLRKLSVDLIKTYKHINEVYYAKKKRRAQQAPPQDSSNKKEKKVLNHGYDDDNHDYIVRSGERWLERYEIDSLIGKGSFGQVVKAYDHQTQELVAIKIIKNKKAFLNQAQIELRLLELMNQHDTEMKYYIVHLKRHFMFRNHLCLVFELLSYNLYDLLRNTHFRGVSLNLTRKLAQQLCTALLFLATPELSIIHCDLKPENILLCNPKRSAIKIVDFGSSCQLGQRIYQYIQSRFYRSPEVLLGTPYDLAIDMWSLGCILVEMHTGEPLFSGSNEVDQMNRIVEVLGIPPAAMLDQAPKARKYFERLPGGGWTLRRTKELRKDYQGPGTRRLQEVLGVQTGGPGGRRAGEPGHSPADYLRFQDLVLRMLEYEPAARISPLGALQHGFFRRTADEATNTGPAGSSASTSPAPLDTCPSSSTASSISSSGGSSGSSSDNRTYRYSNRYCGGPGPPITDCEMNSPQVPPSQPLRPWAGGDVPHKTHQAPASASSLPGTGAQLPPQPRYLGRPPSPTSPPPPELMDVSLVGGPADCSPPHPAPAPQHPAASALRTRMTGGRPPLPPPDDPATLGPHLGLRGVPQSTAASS

Molecular target: DYRK1B (UniProt Q9Y463)
Experiment: kinase-Nluc reporter destabilization hit call (1 = scored as downregulated) (binary); higher = compound decreases kinase abundance
Details: K562; 2-18 h

kinase-Nluc reporter destabilization hit call, inactive:
CC(C)(C)n1nc(Cc2cccc3ccccc23)c2c(N)ncnc21 (10 µM) 0, CC1(C)CC=C(c2nc(C3CC(C)(C)OC(C)(C)C3)ccc2NC(=O)c2nc(C#N)c[nH]2)CC1 [Edicotinib] (2.5 µM) 0, CC(C)CC(=O)Nc1n[nH]c2c1CN(C(=O)C1CCN(C)CC1)C2(C)C (2.5 µM) 0, Nc1ncnc2c1c(-c1ccc(Oc3ccccc3)cc1)cn2C1CCCC1 (2.5 µM) 0, CC(=O)NCC(=O)N1[C@@H]2CC[C@H]1c1ccc(Nc3ncc(C(F)(F)F)c(NC4CCC4)n3)cc12 (2.5 µM) 0, Cc1nc(-c2cnc(NC(C)C)n(C)c2=O)ccc1Oc1ccnc(-c2cnn(C)c2)c1 (2.5 µM) 0, CN(C)C(=O)/C(C#N)=C/c1ccc(-c2nc3cnc4[nH]ccc4c3n2C2CCCCC2)o1 (10 µM) 0, CCCS(=O)(=O)Nc1ccc(F)c(C(=O)c2c[nH]c3ncc(Cl)cc23)c1F (10 µM) 0, COc1ccc2c(NC(=O)Nc3cccc(C(F)(F)F)n3)ccnc2c1 (10 µM) 0, CNC(=O)c1cccc(-c2ccc3c(N4CCOC[C@@H]4C)nc(N4CCOC[C@@H]4C)nc3n2)c1 [Vistusertib] (2.5 µM) 0, COCCNCCc1cccc(Nc2ncc3c(n2)-c2ccccc2[C@H](c2ccccc2F)C3)c1 [Derazantinib] (2.5 µM) 0, CNC(=O)c1ccccc1Nc1nc(Nc2ccc(N3CCOCC3)cc2OC)ncc1Cl (2.5 µM) 0, Cc1c(C(=O)N2CCOc3ccc(-c4ccc(N)nc4)cc3C2)ccc(S(C)(=O)=O)c1F (10 µM) 0, Cc1ccc(NC(=O)Nc2nnc(Sc3ncnc4cc(OCCCN5CCOCC5)ccc34)s2)cc1 (10 µM) 0, N#CC(=Cc1ccc(O)c(O)c1)C(=O)NCc1ccccc1 (mixture of isomers) (10 µM) 0, COc1ccc(COc2ccc(Cc3cnc(N)nc3N)cc2OC)cc1 (10 µM) 0, CC(=O)N1CCN(c2ccc(OCC3COC(Cn4ccnc4)(c4ccc(Cl)cc4Cl)O3)cc2)CC1 (stereo not drawn) [Ketoconazole] (2.5 µM) 0, Cc1ccc(F)c(NC(=O)Nc2ccc(-c3cccc4[nH]nc(N)c34)cc2)c1 [Linifanib] (2.5 µM) 0, NC(=O)c1ccc2nc(-c3ccc(Oc4ccc(Cl)cc4)cc3)[nH]c2c1 (10 µM) 0, CNc1nc(-c2ccc3c(N)n[nH]c3c2)cc(N2C[C@@H](C(=O)NC3CCCCC3)CC[C@H]2C)n1 (10 µM) 0, Cc1nc(N)sc1-c1ccnc(Nc2ccc(N3CCOCC3)cc2)n1 (10 µM) 0, O=c1oc2ccccc2c(O)c1Cc1c(O)c2ccccc2oc1=O [Dicoumarol] (10 µM) 0, CCc1nc(-c2cccc(C)c2)c(-c2ccnc(NC(=O)c3ccccc3)c2)s1 (10 µM) 0, CC(C)(C)c1cc(NC(=O)Nc2ccc(-c3cn4c(n3)sc3cc(OCCN5CCOCC5)ccc34)cc2)no1 [Quizartinib] (10 µM) 0, O=S(=O)(NCCNC/C=C/c1ccc(Br)cc1)c1cccc2cnccc12 [H-89 (dihydrochloride)] (10 µM) 0, COc1cc2ncn(-c3cc(OCc4ccccc4C(F)(F)F)c(C(N)=O)s3)c2cc1OC (10 µM) 0, CCn1cc(-c2ccnc3[nH]c(-c4cccc(CN(C)C)c4)cc23)c(-c2ccc(NC(=O)N(C)C)cc2)n1 (2.5 µM) 0, O=C1c2ccccc2-c2n[nH]c3cccc1c23 (10 µM) 0, C[C@]1(O)C[C@@H](c2nc(-c3ccc4ccc(-c5ccccc5)nc4c3)c3c(N)nccn32)C1 [Linsitinib] (2.5 µM) 0, C[C@H](CN(C)C)Oc1nc(Nc2cc3cccc(Cl)c3cn2)cnc1C#N (10 µM) 0, Cc1cc(C)c(/C=C2\C(=O)Nc3ccccc32)[nH]1 [Semaxinib] (10 µM) 0, Cc1cccc(Cn2nc(C3CC3)c3c(NC(=O)c4cnc5cc(OCCN6CCN(C)CC6)ccn45)cccc32)n1 (10 µM) 0, COc1cc(OC)cc(-c2cc3cnc(N)nc3nc2NC(=O)NC(C)(C)C)c1 (10 µM) 0
